Data as given in PubChem BioAssay AID1259276 (Sanger Institute, 2017)

Purpose: 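Find kinases whose silencing cuts viability alone or combined with BYL719, cetuximab or trametinib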 (primary screen)
Cell system: human C2BBe1 colorectal cancer cells
Knock-down reagent: siRNA pool against human genes
Treatment: DMSO vehicle, or one anchor drug: BYL719 at 1 µM, cetuximab at 5 µg/ml, or trametinib at 10 nM; exposure length not stated
Read-out: 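Viability after knock-down relative to non-targeting siRNA controls, averaged across replicates, given as ratio and control-derived robust z-score, with per-drug synergy scores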
Direction: viability robust z-score, siRNA alone and viability vs control, siRNA alone: higher = more viable cells after knock-down
Rule for the call: 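Called essential when knock-down alone gives a viability robust z-score below -3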
Meaning of the calls: active = essential (siRNA alone); inactive = no change (siRNA alone)
The deposit covers 794 reagents; shown is a part drawn at random. 24 of them (3%) count as active. 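Calls come only from the siRNA-alone arm; drug synergy scores do not affect them.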 Viability is capped at 1. Further read-outs or replicates are left out here. Not given: the amount of reagent, the time to read-out.

TSSK6 (testis specific serine kinase 6) | viability robust z-score, siRNA alone = 0.445; viability vs control, siRNA alone = 0.998; Outcome = inactive
IPPK (inositol-pentakisphosphate 2-kinase) | viability robust z-score, siRNA alone = -2.06; viability vs control, siRNA alone = 0.84; Outcome = inactive
NAGK (N-acetylglucosamine kinase) | viability robust z-score, siRNA alone = 0.144; viability vs control, siRNA alone = 0.979; Outcome = inactive
NEK5 (NIMA related kinase 5) | viability robust z-score, siRNA alone = 0.472; viability vs control, siRNA alone = 1; Outcome = inactive
IP6K1 (inositol hexakisphosphate kinase 1) | viability robust z-score, siRNA alone = 0.472; viability vs control, siRNA alone = 1; Outcome = inactive
FER (FER tyrosine kinase) | viability robust z-score, siRNA alone = 0.472; viability vs control, siRNA alone = 1; Outcome = inactive
CDK16 (cyclin dependent kinase 16) | viability robust z-score, siRNA alone = -0.946; viability vs control, siRNA alone = 0.911; Outcome = inactive
RTN4 (reticulon 4) | viability robust z-score, siRNA alone = -0.157; viability vs control, siRNA alone = 0.96; Outcome = inactive
IRAK3 (interleukin 1 receptor associated kinase 3) | viability robust z-score, siRNA alone = 0.472; viability vs control, siRNA alone = 1; Outcome = inactive
RIOK2 (RIO kinase 2) | viability robust z-score, siRNA alone = 0.472; viability vs control, siRNA alone = 1; Outcome = inactive
FLT3 (fms related receptor tyrosine kinase 3) | viability robust z-score, siRNA alone = 0.472; viability vs control, siRNA alone = 1; Outcome = inactive
FGFR2 (fibroblast growth factor receptor 2) | viability robust z-score, siRNA alone = -0.947; viability vs control, siRNA alone = 0.911; Outcome = inactive
PDGFRA (platelet derived growth factor receptor alpha) | viability robust z-score, siRNA alone = 0.472; viability vs control, siRNA alone = 1; Outcome = inactive
PDPK1 (3-phosphoinositide dependent protein kinase 1) | viability robust z-score, siRNA alone = -0.272; viability vs control, siRNA alone = 0.953; Outcome = inactive

Individual results from the list:
Value of IRAK3 (interleukin 1 receptor associated kinase 3) in “viability robust z-score, siRNA alone”: 0.472
For “viability robust z-score, siRNA alone”, TSSK6 (testis specific serine kinase 6) has 0.445
Under “viability robust z-score, siRNA alone”, NAGK (N-acetylglucosamine kinase) shows 0.144

Continued:
PRKCE (protein kinase C epsilon) | viability robust z-score, siRNA alone = 0.472; viability vs control, siRNA alone = 1; Outcome = inactive
NADK (NAD kinase) | viability robust z-score, siRNA alone = -0.0381; viability vs control, siRNA alone = 0.968; Outcome = inactive
LCK (LCK proto-oncogene, Src family tyrosine kinase) | viability robust z-score, siRNA alone = 0.0535; viability vs control, siRNA alone = 0.974; Outcome = inactive
MAPKAPK5 (MAPK activated protein kinase 5) | viability robust z-score, siRNA alone = 0.472; viability vs control, siRNA alone = 1; Outcome = inactive
KHK (ketohexokinase) | viability robust z-score, siRNA alone = 0.472; viability vs control, siRNA alone = 1; Outcome = inactive
BMPR1B (bone morphogenetic protein receptor type 1B) | viability robust z-score, siRNA alone = -0.72; viability vs control, siRNA alone = 0.925; Outcome = inactive
CKMT2 (creatine kinase, mitochondrial 2) | viability robust z-score, siRNA alone = 0.472; viability vs control, siRNA alone = 1; Outcome = inactive
AK3 (adenylate kinase 3) | viability robust z-score, siRNA alone = 0.472; viability vs control, siRNA alone = 1; Outcome = inactive
KSR2 (kinase suppressor of ras 2) | viability robust z-score, siRNA alone = 0.472; viability vs control, siRNA alone = 1; Outcome = inactive
DGKI (diacylglycerol kinase iota) | viability robust z-score, siRNA alone = 0.472; viability vs control, siRNA alone = 1; Outcome = inactive
TGFBR2 (transforming growth factor beta receptor 2) | viability robust z-score, siRNA alone = 0.472; viability vs control, siRNA alone = 1; Outcome = inactive
CDKL3 (cyclin dependent kinase like 3) | viability robust z-score, siRNA alone = -1.6; viability vs control, siRNA alone = 0.869; Outcome = inactive
CHKB (choline kinase beta) | viability robust z-score, siRNA alone = 0.472; viability vs control, siRNA alone = 1; Outcome = inactive
GNAS (GNAS complex locus) | viability robust z-score, siRNA alone = 0.472; viability vs control, siRNA alone = 1; Outcome = inactive
